# Tested on: A. gambiae labellum sensilla (purine-sensitive cell)
# Assay: Tip recording of action potentials from A. gambiae labellum sensilla in response to agonists
# Type: cell-based, Anopheles gambiae
# Conditions: 200 pM ATP, 200 pM adenosine, 1 mM sucrose
# Method: The tip recording method was used to record action potentials (spikes) from sensory cells in sensilla on A. gambiae labellum lobes.
# Sensilla were exposed to test compounds and PR antagonists for ca. 2-4 s and spikes were counted in the first 2 s of recordings. Up to 4 test compounds were tested on a sensillum to evaluate potential agonists, each presented at 200 pM. To study responses as a function of dose for agonists ATP, adenosine, AMP, AMP-CPP and ATP+adenosine, up to 7 recordings were made at increasing doses of agonist from the same sensillum. […]
# Spike counts elicited by 200 pM doses of nucleotides, nucleosides, purines, pyrimidines and water were log(x+1.25)-transformed (optimal constant numerically established using a maximum likelihood procedure) and analysed using a linear mixed effects model (function ‘lme’ in “nlme” R package) with mosquito number as random effect. […] Spike counts elicited by ATP, AMP, adenosine and their binary mixtures were analysed using a generalised linear model (LM) of log (x+10) transformed data and differences were identified using post-hoc-Tukey test with Holm's FWEC. […]
# Dose-response models fitted to mosquito data were generated using the ‘drm’ command in the “drc” R package (version 2.5-12). Best fitting models (goodness of fit) and effects of dose of a compound were assessed using, respectively, ‘modelFit’ and ‘noEffect’ functions in the same R package. […]
compound,measurement,value
"Nc1ncnc2c1ncn2[C@@H]1O[C@H](COP(=O)(O)OP(=O)(O)OP(=O)(O)O)[C@@H](O)[C@H]1O [ATP, Adenosine 5′-triphosphate]",Spike amplitude (mean±s.e.m.),2.49 mV
